From PMC11116810 come the findings set out here.

Sequences of proteins named here, by UniProt entry; tags and fusion partners are left off.
UniProt P84077: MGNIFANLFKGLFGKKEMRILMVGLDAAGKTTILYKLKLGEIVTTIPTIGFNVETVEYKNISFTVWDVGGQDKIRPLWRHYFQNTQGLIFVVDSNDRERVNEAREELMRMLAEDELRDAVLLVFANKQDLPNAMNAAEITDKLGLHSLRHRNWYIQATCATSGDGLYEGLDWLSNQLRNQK
UniProt P18085: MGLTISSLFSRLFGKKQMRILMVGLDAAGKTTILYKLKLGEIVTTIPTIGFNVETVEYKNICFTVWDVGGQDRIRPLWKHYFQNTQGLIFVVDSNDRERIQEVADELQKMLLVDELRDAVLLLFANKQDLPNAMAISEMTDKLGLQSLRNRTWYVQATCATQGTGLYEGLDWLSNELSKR
UniProt Q4ZIN3: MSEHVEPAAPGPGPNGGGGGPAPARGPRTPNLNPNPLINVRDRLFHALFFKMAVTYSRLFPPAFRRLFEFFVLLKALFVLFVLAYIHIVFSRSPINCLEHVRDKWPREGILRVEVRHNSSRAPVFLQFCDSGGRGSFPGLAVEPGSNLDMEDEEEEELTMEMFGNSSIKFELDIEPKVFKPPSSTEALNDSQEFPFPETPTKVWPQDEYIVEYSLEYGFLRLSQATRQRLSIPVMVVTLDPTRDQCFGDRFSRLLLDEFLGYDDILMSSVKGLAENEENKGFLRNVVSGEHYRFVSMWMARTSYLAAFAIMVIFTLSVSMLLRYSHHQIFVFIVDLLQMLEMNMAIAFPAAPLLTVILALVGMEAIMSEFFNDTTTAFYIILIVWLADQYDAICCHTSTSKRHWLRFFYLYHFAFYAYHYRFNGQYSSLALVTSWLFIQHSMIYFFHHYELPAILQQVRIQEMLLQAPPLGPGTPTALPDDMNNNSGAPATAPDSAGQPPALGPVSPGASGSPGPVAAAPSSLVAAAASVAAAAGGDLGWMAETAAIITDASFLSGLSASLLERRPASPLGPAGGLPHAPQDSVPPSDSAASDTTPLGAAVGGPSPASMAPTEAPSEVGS

These are yes or no findings as the source states them, for the method shown. Binding seen in cells or lysates may run through a third protein. Here binding means that the protein was enriched with, or labelled near, the bait; the list need not be complete. For some assays here: A no says only that the protein was not detected with the bait.

The target in assay [1] is T1, ERLIN2 (ER lipid raft-associated 2) (human (endogenous in HeLa)) (UniProt O94905).
T1 sequence: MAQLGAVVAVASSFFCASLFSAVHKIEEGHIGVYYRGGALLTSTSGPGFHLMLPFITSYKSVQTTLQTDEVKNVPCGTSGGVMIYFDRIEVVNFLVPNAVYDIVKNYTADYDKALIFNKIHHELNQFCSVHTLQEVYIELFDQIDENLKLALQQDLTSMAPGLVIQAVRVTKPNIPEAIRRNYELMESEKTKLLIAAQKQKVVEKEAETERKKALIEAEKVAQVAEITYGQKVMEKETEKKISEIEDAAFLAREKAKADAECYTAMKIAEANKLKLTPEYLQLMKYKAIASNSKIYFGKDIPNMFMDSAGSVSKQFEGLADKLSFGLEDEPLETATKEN
Description: affinity purification with mass spectrometry; IP of endogenous ERLIN2 with anti-ERLIN2 antibody and Protein G Dynabeads from HeLa lysate (IP buffer: Tris-HCl pH 7.4 50 mM, KCl 50 mM, Triton X-100 0.5%; 4°C); WT compared with ERLIN1/ERLIN2 DKO cells; label-free quantitative MS, N = 4.

Assay [2] concerns the target T2, TMUB1-L (long, full-length isoform of transmembrane and ubiquitin-like domain-containing 1) (human (endogenous in HeLa)) (UniProt Q9BVT8).
T2 sequence: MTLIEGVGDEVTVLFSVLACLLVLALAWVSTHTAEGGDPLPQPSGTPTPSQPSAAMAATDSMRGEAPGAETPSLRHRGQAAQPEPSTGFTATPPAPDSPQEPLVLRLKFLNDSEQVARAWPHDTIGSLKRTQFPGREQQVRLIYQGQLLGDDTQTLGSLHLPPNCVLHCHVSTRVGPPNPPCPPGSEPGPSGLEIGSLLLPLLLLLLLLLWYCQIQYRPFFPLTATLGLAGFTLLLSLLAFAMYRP
Nature of the assay: affinity purification with mass spectrometry; IP of endogenous TMUB1 from HeLa lysate (IP buffer with 0.5% Triton X-100); WT compared with TMUB1-L KO cells as control; MS, N = 4.

Assay [3] addresses T3, TMUB1 (transmembrane and ubiquitin-like domain-containing 1), isoforms not told apart (human (endogenous in HeLa)) (UniProt Q9BVT8).
T3 sequence: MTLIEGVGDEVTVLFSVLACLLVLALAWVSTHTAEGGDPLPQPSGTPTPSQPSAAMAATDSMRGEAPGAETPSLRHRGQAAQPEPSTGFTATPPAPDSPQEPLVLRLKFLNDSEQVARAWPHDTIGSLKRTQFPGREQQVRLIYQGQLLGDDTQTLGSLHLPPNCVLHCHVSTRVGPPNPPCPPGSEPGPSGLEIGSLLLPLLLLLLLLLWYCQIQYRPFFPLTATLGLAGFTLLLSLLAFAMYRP
Nature of the assay: affinity purification with mass spectrometry; IP with antibodies detecting both TMUB1 isoforms against a control IgG (anti-RFP) from lysates of WT and of ERLIN1/ERLIN2 DKO HeLa cells; MS, N = 4.

Assay [4] addresses TMUB1-S (short isoform of TMUB1) (human (endogenous in HeLa)). Nature of the assay: affinity purification with mass spectrometry; IP of endogenous TMUB1 from HeLa lysate (IP buffer with 0.5% Triton X-100); WT compared with TMUB1-L KO cells as control; MS, N = 4.

“ARF1 (ADP-ribosylation factor 1) (from UniProt P84077 1-181)”: the binding result in assay [1] was “binds”. Turning to “ARF4 (ADP-ribosylation factor 4) (from UniProt P18085 1-180)”, in assay [1], the binding result is “binds”. For “TMEM259 (transmembrane protein 259) (from UniProt Q4ZIN3 1-620)”, the binding entry in assay [2], in assay [3] and in assay [1] was “binds” each time. Regarding “VCP (valosin-containing protein) (from UniProt P55072 1-806)”, the binding entry in assay [2] was “binds”.

B1: ATP-binding cassette subfamily D member 3 (ABCD3) (protein, UniProt P28288 1-659)
chain: MAAFSKYLTARNSSLAGAAFLLLCLLHKRRRALGLHGKKSGKPPLQNNEKEGKKERAVVDKVFFSRLIQILKIMVPRTFCKETGYLVLIAVMLVSRTYCDVWMIQNGTLIESGIIGRSRKDFKRYLLNFIAAMPLISLVNNFLKYGLNELKLCFRVRLTKYLYEEYLQAFTYYKMGNLDNRIANPDQLLTQDVEKFCNSVVDLYSNLSKPFLDIVLYIFKLTSAIGAQGPASMMAYLVVSGLFLTRLRRPIGKMTITEQKYEGEYRYVNSRLITNSEEIAFYNGNKREKQTVHSVFRKLVEHLHNFILFRFSMGFIDSIIAKYLATVVGYLVVSRPFLDLSHPRHLKSTHSELLEDYYQSGRMLLRMSQALGRIVLAGREMTRLAGFTARITELMQVLKDLNHGKYERTMVSQQEKGIEGVQVIPLIPGAGEIIIADNIIKFDHVPLATPNGDVLIRDLNFEVRSGANVLICGPNGCGKSSLFRVLGELWPLFGGRLTKPERGKLFYVPQRPYMTLGTLRDQVIYPDGREDQKRKGISDLVLKEYLDNVQLGHILEREGGWDSVQDWMDVLSGGEKQRMAMARLFYHKPQFAILDECTSAVSVDVEGYIYSHCRKVGITLFTVSHRKSLWKHHEYYLHMDGRGNYEFKQITEDTVEFGS
Take B1: the binding result in assay [1] is “binds”.

B2: ERLIN1 (ER lipid raft-associated 1) (protein, UniProt O75477 1-348)
chain: MNMTQARVLVAAVVGLVAVLLYASIHKIEEGHLAVYYRGGALLTSPSGPGYHIMLPFITTFRSVQTTLQTDEVKNVPCGTSGGVMIYIDRIEVVNMLAPYAVFDIVRNYTADYDKTLIFNKIHHELNQFCSAHTLQEVYIELFDQIDENLKQALQKDLNLMAPGLTIQAVRVTKPKIPEAIRRNFELMEAEKTKLLIAAQKQKVVEKEAETERKKAVIEAEKIAQVAKIRFQQKVMEKETEKRISEIEDAAFLAREKAKADAEYYAAHKYATSNKHKLTPEYLELKKYQAIASNSKIYFGSNIPNMFVDSSCALKYSDIRTGRESSLPSKEALEPSGENVIQNKESTG
For the molecule B2, the binding entry in assay [2] is given as “binds”; in assay [4] it was “no binding”.

B3: stomatin (STOM) (protein, UniProt P27105 1-288)
chain: MAEKRHTRDSEAQRLPDSFKDSPSKGLGPCGWILVAFSFLFTVITFPISIWMCIKIIKEYERAIIFRLGRILQGGAKGPGLFFILPCTDSFIKVDMRTISFDIPPQEILTKDSVTISVDGVVYYRVQNATLAVANITNADSATRLLAQTTLRNVLGTKNLSQILSDREEIAHNMQSTLDDATDAWGIKVERVEIKDVKLPVQLQRAMAAEAEASREARAKVIAAEGEMNASRALKEASMVITESPAALQLRYLQTLTTIAAEKNSTIVFPLPIDMLQGIIGAKHSHLG
Turning to B3, in assay [1], the binding entry is “binds”.

B4: ERLIN2 (ER lipid raft-associated 2) (protein, UniProt O94905 1-339)
chain: MAQLGAVVAVASSFFCASLFSAVHKIEEGHIGVYYRGGALLTSTSGPGFHLMLPFITSYKSVQTTLQTDEVKNVPCGTSGGVMIYFDRIEVVNFLVPNAVYDIVKNYTADYDKALIFNKIHHELNQFCSVHTLQEVYIELFDQIDENLKLALQQDLTSMAPGLVIQAVRVTKPNIPEAIRRNYELMESEKTKLLIAAQKQKVVEKEAETERKKALIEAEKVAQVAEITYGQKVMEKETEKKISEIEDAAFLAREKAKADAECYTAMKIAEANKLKLTPEYLQLMKYKAIASNSKIYFGKDIPNMFMDSAGSVSKQFEGLADKLSFGLEDEPLETATKEN
With B4, the binding result in assay [2] is “binds”.

B5: FAF2 (FAS-associated factor 2) (protein, UniProt Q96CS3 1-445)
chain: MAAPEERDLTQEQTEKLLQFQDLTGIESMDQCRHTLEQHNWNIEAAVQDRLNEQEGVPSVFNPPPSRPLQVNTADHRIYSYVVSRPQPRGLLGWGYYLIMLPFRFTYYTILDIFRFALRFIRPDPRSRVTDPVGDIVSFMHSFEEKYGRAHPVFYQGTYSQALNDAKRELRFLLVYLHGDDHQDSDEFCRNTLCAPEVISLINTRMLFWACSTNKPEGYRVSQALRENTYPFLAMIMLKDRRMTVVGRLEGLIQPDDLINQLTFIMDANQTYLVSERLEREERNQTQVLRQQQDEAYLASLRADQEKERKKREERERKRRKEEEVQQQKLAEERRRQNLQEEKERKLECLPPEPSPDDPESVKIIFKLPNDSRVERRFHFSQSLTVIHDFLFSLKESPEKFQIEANFPRRVLPCIPSEEWPNPPTLQEAGLSHTEVLFVQDLTDE
Regarding B5, in assay [2], the binding result is given as “binds”.

B6: RNF170 (RING finger protein 170) (protein, UniProt Q96K19 1-258)
chain: MAKYQGEVQSLKLDDDSVIEGVSDQVLVAVVVSFALIATLVYALFRNVHQNIHPENQELVRVLREQLQTEQDAPAATRQQFYTDMYCPICLHQASFPVETNCGHLFCGACIIAYWRYGSWLGAISCPICRQTVTLLLTVFGEDDQSQDVLRLHQDINDYNRRFSGQPRSIMERIMDLPTLLRHAFREMFSVGGLFWMFRIRIILCLMGAFFYLISPLDFVPEALFGILGFLDDFFVIFLLLIYISIMYREVITQRLTR
B6: the binding entry in assay [1] is “binds”.

B7: trans-2,3-enoyl-CoA reductase (TECR) (protein, UniProt Q9NZ01 1-308)
chain: MKHYEVEILDAKTREKLCFLDKVEPHATIAEIKNLFTKTHPQWYPARQSLRLDPKGKSLKDEDVLQKLPVGTTATLYFRDLGAQISWVTVFLTEYAGPLFIYLLFYFRVPFIYGHKYDFTSSRHTVVHLACICHSFHYIKRLLETLFVHRFSHGTMPLRNIFKNCTYYWGFAAWMAYYINHPLYTPPTYGAQQVKLALAIFVICQLGNFSIHMALRDLRPAGSKTRKIPYPTKNPFTWLFLLVSCPNYTYEVGSWIGFAIMTQCLPVALFSLVGFTQMTIWAKGKHRSYLKEFRDYPPLRMPIIPFLL
As to B7, the binding result in assay [1] was “binds”.

B8: flotillin-1 (FLOT1) (protein, UniProt O75955 1-427)
chain: MFFTCGPNEAMVVSGFCRSPPVMVAGGRVFVLPCIQQIQRISLNTLTLNVKSEKVYTRHGVPISVTGIAQVKIQGQNKEMLAAACQMFLGKTEAEIAHIALETLEGHQRAIMAHMTVEEIYKDRQKFSEQVFKVASSDLVNMGISVVSYTLKDIHDDQDYLHSLGKARTAQVQKDARIGEAEAKRDAGIREAKAKQEKVSAQYLSEIEMAKAQRDYELKKAAYDIEVNTRRAQADLAYQLQVAKTKQQIEEQRVQVQVVERAQQVAVQEQEIARREKELEARVRKPAEAERYKLERLAEAEKSQLIMQAEAEAASVRMRGEAEAFAIGARARAEAEQMAKKAEAFQLYQEAAQLDMLLEKLPQVAEEISGPLTSANKITLVSSGSGTMGAAKVTGEVLDILTRLPESVERLTGVSISQVNHKPLRTA
Turning to B8, in assay [1], the binding entry was “binds”.

B9: RNF185 (protein, UniProt Q96GF1 1-192)
chain: MASKGPSASASPENSSAGGPSGSSNGAGESGGQDSTFECNICLDTAKDAVISLCGHLFCWPCLHQWLETRPNRQVCPVCKAGISRDKVIPLYGRGSTGQQDPREKTPPRPQGQRPEPENRGGFQGFGFGDGGFQMSFGIGAFPFGIFATAFNINDGRPPPAVPGTPQYVDEQFLSRLFLFVALVIMFWLLIA
B9: the binding result in assay [2] and in assay [3] was “binds” each time.
